This is an account of results in the supplement of paper PMC4604168 (melanoma cell lines).

Some of the results follow. Single values are uncertain, as repeats are few or missing.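 The apoptosis fraction was the count of cleaved-PARP antibody-stained nuclei relative to all DNA-stained nuclei, imaged in 1,536-well plates. Screening doses were set so most cells survived, and baseline and induced cleaved-PARP levels vary greatly across cell lines.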

Among the test systems are A101D; A2058; A375; C32; CBRC008; CBRC014; CBRC016; CBRC034; COLO792; COLO800; COLO829; G361; IPC-298; IST-MEL1; LOXIMVI; MEL-HO; CBRC017.
Common to all, as to experiment: cleaved PARP positive nuclei fraction relative to DMSO control; melanoma cells; higher = more apoptosis
Common to all, as to settings: library dose: low library concentration; 72 h

Regarding `COc1cc([C@@H]2c3cc4c(cc3[C@@H](O[C@@H]3O[C@@H]5CO[C@@H](C)O[C@H]5[C@H](O)[C@H]3O)[C@H]3COC(=O)[C@H]23)OCO4)cc(OC)c1O` [etoposide] + Cn1nnc2c(C(N)=O)ncn2c1=O [temozolomide] (first compound 0.02 µM, partner dose 2 µM), the “cleaved PARP positive nuclei fraction” value was found to be 46.9% with A101D; 256% in the assay with A2058; 115% in the assay on A375; 154% in the assay on C32; 88.6% in the assay with CBRC008; 101% in the assay with CBRC014. The “cleaved PARP positive nuclei fraction” value with CBRC016 was found to be 82%; with CBRC034, 119%; in the assay on COLO792 it was 61.2%; in the assay on COLO800, 102%; in the assay with COLO829, 65.7%; in the assay on G361, 60.4%. The “cleaved PARP positive nuclei fraction” value turned out to be 182% in the assay with IPC-298, 196% in the assay with IST-MEL1, 291% in the assay with LOXIMVI and 62.2% in the assay with MEL-HO.

Regarding `Cc1ccc(Nc2nccc(N(C)c3ccc4c(C)n(C)nc4c3)n2)cc1S(N)(=O)=O` [Pazopanib] + CC(C)CCN1c2nc(Nc3cc(F)c(O)c(F)c3)ncc2N(C)C(=O)C1C [BID1870] (first compound 0.4 µM, partner dose 0.2 µM), the “cleaved PARP positive nuclei fraction” value is 21.2% with A101D; 27.1% in the assay with A2058; 49.6% with C32; 202% in the assay with CBRC008; 101% in the assay on CBRC014 (line from a melanoma biopsy); 88.3% in the assay with CBRC016. The “cleaved PARP positive nuclei fraction” value in the assay with CBRC017 turned out to be 177%; in the assay with COLO792 it was 81.5%; with COLO800 it was 52.2%; with COLO829, 102%; in the assay with G361, 88.2%; in the assay with IPC-298, 110%. Also, the “cleaved PARP positive nuclei fraction” value with IST-MEL1 amounted to 73%; in the assay with LOXIMVI, 78.6%.

Consider `CCCCCCCCCCCCCCCCCCOP(=O)([O-])OC1CC[N+](C)(C)CC1` [Perifosine] + CO[C@H]1C[C@@H]2CC[C@@H](C)[C@@](O)(O2)C(=O)C(=O)N2CCCC[C@H]2C(=O)O[C@H]([C@H](C)C[C@@H]2CC[C@@H](OCCO)[C@H](OC)C2)CC(=O)[C@H](C)/C=C(\C)[C@@H](O)[C@@H](OC)C(=O)[C@H](C)C[C@H](C)/C=C/C=C/C=C/1C [everolimus] (first compound 0.4 µM, partner dose 0.02 µM), for which the “cleaved PARP positive nuclei fraction” value in the assay with A101D came to 43.9%; in the assay with A2058 it was 82.2%; with A375 it was 594%; in the assay on C32, 91.6%; in the assay with CBRC008, 66%; in the assay on CBRC014, 213%. The “cleaved PARP positive nuclei fraction” value with CBRC016 stood at 80%; in the assay with CBRC017 it was 93.5%; in the assay on CBRC034 (line from a melanoma biopsy), 69.6%; in the assay with COLO792, 187%; in the assay with COLO800, 98.1%; with COLO829, 72.2%. Besides, the “cleaved PARP positive nuclei fraction” value in the assay on G361 was determined as 52.7%; in the assay on IPC-298 it was 113%; in the assay on IST-MEL1, 132%; with LOXIMVI it was 69.2%; with MEL-HO, 67.7%.

On to `Cc1cc(Nc2cc(N3CCN(C)CC3)nc(Sc3ccc(NC(=O)C4CC4)cc3)n2)n[nH]1` [Tozasertib] + Cc1cc([N+](=O)[O-])ccc1NS(=O)(=O)c1cc(Cl)ccc1Cl [FH535] (first compound 0.006 µM, partner dose 1 µM), for which the “cleaved PARP positive nuclei fraction” value in the assay with A101D is 10.7%; in the assay with A2058, 101%; in the assay with C32 it was 169%; with CBRC008 it was 488%; with CBRC014 it was 154%; in the assay with CBRC016 it was 335%. Moreover, the “cleaved PARP positive nuclei fraction” value in the assay on CBRC017 (line from a melanoma biopsy) amounted to 356%; in the assay with COLO792, 65.6%; with COLO800, 75.6%; in the assay with COLO829, 99.1%; with G361 it was 83.4%; in the assay with IPC-298, 153%. In addition, the “cleaved PARP positive nuclei fraction” value worked out at 43.8% in the assay with IST-MEL1 and 105% in the assay with LOXIMVI.

With `CC[C@]1(O)C[C@H]2CN(CCc3c([nH]c4ccccc34)[C@@](C(=O)OC)(c3cc4c(cc3OC)N(C=O)[C@H]3[C@@](O)(C(=O)OC)[C@H](OC(C)=O)[C@]5(CC)C=CCN6CC[C@]43[C@@H]65)C2)C1` [vincristine] + O=C1NC(=O)/C(=C/c2ccc(-c3ccc(F)cc3O)o2)S1 [AS252424] (first compound 0.0001 µM, partner dose 1 µM), the “cleaved PARP positive nuclei fraction” value was 40% with A101D; 882% with A2058; 408% in the assay on C32; 62.8% with CBRC008; 77.6% in the assay with CBRC014; 78.7% with CBRC016. In addition, the “cleaved PARP positive nuclei fraction” value with CBRC017 is 97.5%; with COLO792 it was 83.1%; in the assay with COLO800, 65.5%; in the assay on COLO829, 201%; in the assay with G361, 94.2%; in the assay with IPC-298, 93%. For the same molecule, the “cleaved PARP positive nuclei fraction” value in the assay with IST-MEL1 stood at 92.7%; in the assay with LOXIMVI it was 59.1%.

Consider `COc1cc([C@@H]2c3cc4c(cc3[C@@H](O[C@@H]3O[C@@H]5CO[C@@H](C)O[C@H]5[C@H](O)[C@H]3O)[C@H]3COC(=O)[C@H]23)OCO4)cc(OC)c1O` [etoposide] + O=C(/C=C/c1cccnc1)NCCCCC1CCN(C(=O)c2ccccc2)CC1 [FK866] (first compound 0.02 µM, partner dose 0.01 µM), for which the “cleaved PARP positive nuclei fraction” value is 98.8% in the assay with A101D; 304% in the assay on A2058; 130% in the assay with A375; 74.7% with C32; 2770% with CBRC008; 122% in the assay with CBRC014. The “cleaved PARP positive nuclei fraction” value in the assay with CBRC016 stood at 536%; with CBRC017 it was 475%; in the assay on CBRC034, 1280%; with COLO792, 232%; in the assay on COLO800 it was 204%; in the assay with COLO829, 121%. The “cleaved PARP positive nuclei fraction” value with G361 worked out at 1700%; with IPC-298, 1110%; in the assay with IST-MEL1, 43.9%; in the assay with LOXIMVI it was 235%; with MEL-HO it was 118%.

Turning to `O=C(Nc1cc(C(F)(F)F)cc(C(F)(F)F)c1)c1cc(Cl)ccc1O` + CCCCCCCCCCCC1=C(O)C(=O)C=C(O)C1=O [Embelin] (first compound 0.016 µM, partner dose 1.2 µM), the “cleaved PARP positive nuclei fraction” value with A101D came to 25.1%; in the assay with A2058 it was 173%; with C32, 83.7%; in the assay with CBRC008 it was 57.8%; with CBRC014, 99.4%; in the assay with CBRC016, 44.5%. In addition, the “cleaved PARP positive nuclei fraction” value was 106% in the assay on CBRC017; 123% with COLO792; 132% with COLO800; 61.9% in the assay on COLO829; 153% in the assay on G361; 93.2% in the assay with IPC-298. Further, the “cleaved PARP positive nuclei fraction” value in the assay on IST-MEL1 was 34.4%; in the assay with LOXIMVI, 83.6%.

As for `CC[C@]1(O)C[C@H]2CN(CCc3c([nH]c4ccccc34)[C@@](C(=O)OC)(c3cc4c(cc3OC)N(C=O)[C@H]3[C@@](O)(C(=O)OC)[C@H](OC(C)=O)[C@]5(CC)C=CCN6CC[C@]43[C@@H]65)C2)C1` [vincristine] + CC(=O)O[C@@]12CO[C@@H]1C[C@H](O)[C@@]1(C)C(=O)[C@H](O)C3=C(C)[C@@H](OC(=O)[C@H](O)[C@@H](NC(=O)OC(C)(C)C)c4ccccc4)C[C@@](O)([C@@H](OC(=O)c4ccccc4)[C@H]21)C3(C)C [Docetaxel] (first compound 0.0001 µM, partner dose 0.0001 µM), the “cleaved PARP positive nuclei fraction” value in the assay with A101D turned out to be 59.3%; in the assay with A2058, 3090%; in the assay with A375 it was 890%; in the assay on C32, 175%; in the assay with CBRC008 it was 229%; in the assay on CBRC014, 155%. The “cleaved PARP positive nuclei fraction” value was 381% with CBRC016; 177% with CBRC017; 310% in the assay with CBRC034; 416% with COLO792; 235% in the assay on COLO800; 172% with COLO829. In addition, the “cleaved PARP positive nuclei fraction” value in the assay with G361 came to 1110%; with IPC-298 it was 406%; with IST-MEL1, 114%; with LOXIMVI it was 174%; with MEL-HO, 118%.

`Cc1cn(-c2cc(NC(=O)c3ccc(C)c(Nc4nccc(-c5cccnc5)n4)c3)cc(C(F)(F)F)c2)cn1` [nilotinib] + CCc1ccc(CCOc2ccc(CC3SC(=O)NC3=O)cc2)nc1 [pioglitazone] (first compound 0.2 µM, partner dose 2 µM): the “cleaved PARP positive nuclei fraction” value in the assay on A101D was 17.2%; in the assay with A2058, 24%; with C32 it was 211%; in the assay on CBRC008 (line from a melanoma biopsy), 79.2%; in the assay on CBRC014, 107%; in the assay with CBRC016, 77.1%. The “cleaved PARP positive nuclei fraction” value with CBRC017 came out at 61.7%; in the assay on COLO792, 170%; in the assay on COLO800, 186%; with COLO829 it was 63.6%; in the assay on G361, 88.6%; in the assay with IPC-298, 45.1%. Further, the “cleaved PARP positive nuclei fraction” value was found to be 182% in the assay on IST-MEL1 and 111% in the assay with LOXIMVI.
